From PubChem BioAssay AID330 (DTP/NCI, 2004)
The list shows only some results of the screen, not a fair sample: it gathers tests that were run many times, whatever their T/C, doses with no T/C, and many T/C values between a quarter and a half above the control. Further doses and runs are listed elsewhere. T/C is the treated group as % of the vehicle group. Some doses have a count of surviving animals in place of a T/C: the source files T/C as zero there, which appears to mark a toxic dose or a test without result, not a measured value. Some survivor counts are full or nearly so, which does not show that the dose was tolerated: survival well below the control is almost never listed, so the zero probably covers shortened survival too. Counts of survivors are from the toxicity check (mostly the fifth day) where no day follows; animals may have died later. Schedule codes are those of the source, taken here to give the interval after Q, in days (D) or hours (H), and the number of doses after X. Some entries were tested several times; their values stand side by side, smallest first. Where survival is the endpoint, this PubChem deposit counts one and a half times the control or more as active, and values a quarter to a half above the control carry no call in these data; other NCI protocols may use other cut-offs. Some T/C values carry the count of animals alive at the toxicity check (mostly the fifth day); without a count, all were alive then.

System: P388 leukemia ip, CD2F1 mice, survival T/C
Experiment: NCI In Vivo Anticancer Drug Screen. Data for tumor model P388 Leukemia (intraperitoneal) in CD2F1 (CDF1) mice
Details: T/C endpoint: median survival time, higher T/C = longer survival
[1] = dose: 100.0 mg/kg/injection, schedule: Q01DX009 (ip), vehicle: saline with Tween-80
[2] = dose: 200.0 mg/kg/injection, schedule: Q01DX009 (ip), vehicle: saline with Tween-80
[3] = dose: 200.0 mg/kg/injection, schedule: Q01DX005 (ip), vehicle: saline
[4] = dose: 200.0 mg/kg/injection, schedule: Q01DX005 (ip), vehicle: saline with Tween-80
[5] = dose: 200.0 mg/kg/injection, schedule: Q01DX009 (ip), vehicle: saline
[6] = dose: 600.0 mg/kg/injection, schedule: Q01DX009 (ip), vehicle: saline
[7] = dose: 12.5 mg/kg/injection, schedule: Q01DX009 (ip), vehicle: saline with Tween-80
[8] = dose: 100.0 mg/kg/injection, schedule: Q01DX005 (ip), vehicle: saline with Tween-80
[9] = dose: 6.25 mg/kg/injection, schedule: Q01DX009 (ip), vehicle: Klucel (hydroxypropylcellulose) (HPC)
[10] = dose: 50.0 mg/kg/injection, schedule: Q01DX009 (ip), vehicle: Klucel (hydroxypropylcellulose) (HPC)
[11] = dose: 100.0 mg/kg/injection, schedule: Q01DX009 (ip), vehicle: Klucel (hydroxypropylcellulose) (HPC)
[12] = dose: 200.0 mg/kg/injection, schedule: Q01DX009 (ip), vehicle: Klucel (hydroxypropylcellulose) (HPC)

## CC1(O)C(c2ccccc2)=C(c2ccccc2)C2(c3ccccc3)Oc3c(Cl)c(Cl)c(Cl)c(Cl)c3OC12c1ccccc1 (stereo unspecified)
[1]
  survivor count: 6 of 6
[2]
  survivor count: 6 of 6

## N#CC(=S)N(C(=O)c1ccc(Cl)cc1)c1ccccc1Cl
dose: 240.0 mg/kg/injection, schedule: Q01DX005 (ip), vehicle: Klucel + Tween-80
  survivor count: 2 of 6

## N#Cc1c(-c2ccc(Cl)cc2)c(-c2ccc(Cl)cc2)nn(CCOC(=O)CCC(=O)O)c1=O
dose: 50.0 mg/kg/injection, schedule: Q01DX005 (ip), vehicle: saline
  T/C: 133 and 148 % of control [5 of 6 alive]
dose: 50.0 mg/kg/injection, schedule: Q01DX005 (ip), vehicle: sodium bicarbonate
  T/C: 128 % of control
dose: 50.0 mg/kg/injection, schedule: Q04DX002 (ip), vehicle: distilled water + Tween-80
  T/C: 126 and 132 % of control
dose: 100.0 mg/kg/injection, schedule: Q01DX005 (ip), vehicle: distilled water + Tween-80
  survivor count: 0 of 6
dose: 100.0 mg/kg/injection, schedule: Q01DX005 (ip), vehicle: saline
  survivor count: 0 of 6
[3]
  survivor count: 0 of 6
dose: 200.0 mg/kg/injection, schedule: Q01DX005 (ip), vehicle: sodium bicarbonate
  survivor count: 0 of 6
dose: 200.0 mg/kg/injection, schedule: Q04DX002 (ip), vehicle: distilled water + Tween-80
  survivor count: 2 of 6

## CC(/C=C/c1ccccc1)=N\NS(=O)(=O)c1ccc(C)cc1
[4]
  survivor count: 6 of 6

## N/C=N/O
[5]
  T/C: 125 [5 of 6 alive] and 138 % of control
dose: 400.0 mg/kg/injection, schedule: Q01DX009 (ip), vehicle: saline
  survivor count: 6 of 6
[6]
  survivor count: 0 of 6 and 3 of 6

## CC(/C=C/c1ccccc1)=Nc1ccc(Cl)cc1
[1]
  T/C: 132 % of control
[2]
  T/C: 132 % of control [4 of 6 alive]
  survivor count: 3 of 6

## O=C(N=[N+]([O-])c1ccccc1)c1ccccc1
dose: 50.0 mg/kg/injection, schedule: Q04DX003 (ip), vehicle: Klucel (hydroxypropylcellulose) (HPC)
  survivor count: 0 of 6
dose: 100.0 mg/kg/injection, schedule: Q04DX003 (ip), vehicle: Klucel (hydroxypropylcellulose) (HPC)
  survivor count: 0 of 6
dose: 200.0 mg/kg/injection, schedule: Q04DX003 (ip), vehicle: Klucel (hydroxypropylcellulose) (HPC)
  survivor count: 0 of 6

## Cc1ccc2c(c1)=N/C(=N/c1[nH]c(O)c3ccccc13)N=2
[7]
  survivor count: 6 of 6
dose: 25.0 mg/kg/injection, schedule: Q01DX009 (ip), vehicle: saline with Tween-80
  survivor count: 6 of 6
[2]
  survivor count: 6 of 6

## CCCCCN(CCCCC)CCC(O)c1cccc2ccccc12 (stereo unspecified)
[8]
  survivor count: 2 of 5
[4]
  survivor count: 0 of 5

## CCN(CC)c1ccc2c(cc1=O)[C@@H](NC(C)=O)CCc1cc(OC)c(OC)c(OC)c1-2
dose: 0.78 mg/kg/injection, schedule: Q01DX009 (ip), vehicle: Klucel (hydroxypropylcellulose) (HPC)
  T/C: 106, 110, 127, 133, 140 % of control
dose: 1.56 mg/kg/injection, schedule: Q01DX009 (ip), vehicle: Klucel (hydroxypropylcellulose) (HPC)
  T/C: 117, 118, 136, 149, 160 % of control
dose: 3.12 mg/kg/injection, schedule: Q01DX009 (ip), vehicle: Klucel (hydroxypropylcellulose) (HPC)
  T/C: 117, 138, 190, 216 % of control
[9]
  T/C: 95 [5 of 6 alive] and 117 % of control [5 of 6 alive]
  survivor count: 4 of 6, 5 of 6, 6 of 6
dose: 12.5 mg/kg/injection, schedule: Q01DX009 (ip), vehicle: Klucel (hydroxypropylcellulose) (HPC)
  survivor count: 0 of 6 and 3 of 6
dose: 25.0 mg/kg/injection, schedule: Q01DX009 (ip), vehicle: Klucel (hydroxypropylcellulose) (HPC)
  survivor count: 0 of 6

## CCn1c2ccccc2c2cc(NC(N)=S)ccc21
[8]
  survivor count: 2 of 5
[4]
  survivor count: 0 of 5

## COc1ccc(Br)cc1C(Nc1nncs1)Nc1nncs1
dose: 120.0 mg/kg/injection, schedule: Q01DX005 (ip), vehicle: saline with Tween-80
  survivor count: 6 of 6

## CCOC(=O)NC(=O)CNc1ncc([N+](=O)[O-])s1
dose: 400.0 mg/kg/injection, schedule: Q01DX001 (ip), vehicle: Klucel (hydroxypropylcellulose) (HPC)
  survivor count: 0 of 6

## O=C(CNC(=O)c1ccccc1)NCC(=O)NC(Cc1ccccc1)C(=O)O (stereo unspecified)
[4]
  survivor count: 0 of 6

## Clc1ccc(N=C(c2ccncc2)c2cc(Cl)ccc2Cl)cc1
[2]
  survivor count: 2 of 6

## NCCc1cc(O)c(O)c(O)c1
dose: 100.0 mg/kg/injection, schedule: Q01DX009 (ip), vehicle: saline
  T/C: 127 % of control
[5]
  T/C: 140 and 143 % of control
[6]
  T/C: 142 % of control [5 of 6 alive]

## CC(=O)OCC1OC(n2cnc3c(=S)nc(N)[nH]c32)C(OC(C)=O)C1OC(C)=O (stereo unspecified)
[7]
  T/C: 145 % of control
dose: 25.0 mg/kg/injection, schedule: Q04DX003 (ip), vehicle: saline with Tween-80
  T/C: 145 % of control
dose: 50.0 mg/kg/injection, schedule: Q04DX003 (ip), vehicle: saline with Tween-80
  T/C: 140 % of control
dose: 100.0 mg/kg/injection, schedule: Q04DX003 (ip), vehicle: saline with Tween-80
  T/C: 145 % of control
dose: 132.0 mg/kg/injection, schedule: Q04DX003 (ip), vehicle: saline with Tween-80
  T/C: 127 % of control
dose: 200.0 mg/kg/injection, schedule: Q04DX003 (ip), vehicle: saline with Tween-80
  T/C: 127 and 145 % of control
dose: 400.0 mg/kg/injection, schedule: Q04DX003 (ip), vehicle: saline with Tween-80
  survivor count: 5 of 6

## CC1=C(C)SC(=S)NN1
dose: 25.0 mg/kg/injection, schedule: Q01DX009 (ip), vehicle: saline
  survivor count: 0 of 6
dose: 50.0 mg/kg/injection, schedule: Q01DX009 (ip), vehicle: suspension in saline
  survivor count: 0 of 6
dose: 100.0 mg/kg/injection, schedule: Q01DX009 (ip), vehicle: suspension in saline
  survivor count: 1 of 6
dose: 200.0 mg/kg/injection, schedule: Q01DX009 (ip), vehicle: suspension in saline
  survivor count: 0 of 6
dose: 400.0 mg/kg/injection, schedule: Q01DX009 (ip), vehicle: suspension in saline
  survivor count: 0 of 6

## Cn1c(N)c(N=O)c(=O)n(C)c1=O
dose: 720.0 mg/kg/injection, schedule: Q01DX009 (ip), vehicle: saline with Tween-80
  survivor count: 5 of 6

## CCC1S(=O)(=O)OCCOS1(=O)=O
dose: 60.0 mg/kg/injection, schedule: Q01DX005 (ip), vehicle: Klucel (hydroxypropylcellulose) (HPC)
  T/C: 114, 115, 121, 142 % of control
dose: 120.0 mg/kg/injection, schedule: Q01DX005 (ip), vehicle: Klucel (hydroxypropylcellulose) (HPC)
  survivor count: 3 of 6
dose: 240.0 mg/kg/injection, schedule: Q01DX005 (ip), vehicle: Klucel (hydroxypropylcellulose) (HPC)
  survivor count: 0 of 6

## O=C(Nc1ccc(Cl)c(Cl)c1)Sc1ccc(O)cc1
[2]
  survivor count: 6 of 6

## C=CCN(CC=C)CC(C)(O)CNc1cc(OC)cc2cccnc12 (stereo unspecified)
[3]
  survivor count: 0 of 5

## O=C(Nc1ccc(Cl)cc1)Nc1nccs1
dose: 200.0 mg/kg/injection, schedule: Q01DX009 (ip), vehicle: distilled water + Tween-80
  survivor count: 2 of 6

## CC1CCC[P+](CI)(c2ccccc2)CC1 (stereo unspecified)
dose: 100.0 mg/kg/injection, schedule: Q04DX002 (ip), vehicle: saline with Tween-80
  survivor count: 1 of 6
dose: 200.0 mg/kg/injection, schedule: Q04DX002 (ip), vehicle: saline with Tween-80
  survivor count: 0 of 6
dose: 400.0 mg/kg/injection, schedule: Q04DX002 (ip), vehicle: saline with Tween-80
  survivor count: 0 of 6

## CP1(=O)CCC2=C1CCc1cc(O)ccc12 (stereo unspecified)
[10]
  survivor count: 6 of 6
[11]
  survivor count: 6 of 6
[12]
  survivor count: 6 of 6

## CCCCCCCN(CCCCCCC)CC(O)c1c(OC)c2ccccc2c2ccccc12 (stereo unspecified)
[1]
  survivor count: 6 of 6

## CC(=O)O.CC(=O)O.[S-]CCN1CCOCC1.[Zn+2]
[10]
  survivor count: 0 of 6 and 2 of 6
[11]
  survivor count: 0 of 6
[12]
  survivor count: 0 of 6
